Assay results from patent US20130011436A1.
No constants are given. Whether binding was seen depends on the method and setting. Some results given as binding are weak or reduced against the parent protein; the word gives no strength. Tags and fused reporters may be left off the sequences shown.

Protein sequences, listed by entry. Tags and fused reporters are not part of them.
UniProt P61073: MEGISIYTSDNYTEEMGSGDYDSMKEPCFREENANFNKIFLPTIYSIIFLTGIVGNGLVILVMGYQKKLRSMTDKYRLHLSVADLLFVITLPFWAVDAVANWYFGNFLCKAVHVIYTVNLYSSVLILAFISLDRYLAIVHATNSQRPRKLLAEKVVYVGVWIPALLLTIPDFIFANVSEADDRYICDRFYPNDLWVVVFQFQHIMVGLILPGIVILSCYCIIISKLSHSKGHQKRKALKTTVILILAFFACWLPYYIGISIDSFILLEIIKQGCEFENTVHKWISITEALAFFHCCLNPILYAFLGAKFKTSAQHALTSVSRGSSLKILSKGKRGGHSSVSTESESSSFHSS

Target: CXCR4 receptor expressed on SupT-1 cells (UniProt P61073)
Experiment: flow cytometry on SupT-1 cells; biotinylated CXCR4-A-Fc (300 µg/ml) and streptavidin-PE

## KGVSLSYR (Fc fusion, biotinylated in the flow cytometry assay (site not stated)) [CXCR4-A-Fc fusion protein]
  binding: binds
